The record followed here is the supplement of paper PMC3353916.

For the data set, the system named is Sindbis virus TE/5'2J-GFP. The data set is described as follows: percent infected (GFP+ in RFP+ ISG-expressing cells); higher = more infection (less antiviral activity). The conditions noted are these: experiment: primary screen (single well).

This is a noisy data set.

“MGDWGFLEKLLDQVQEHSTVVGKIWLTVLFIFRILILGLAGESVWGDEQSDFECNTAQPGCTNVCYDQAFPISHIRYWVLQFLFVSTPTLVYLGHVIYLSRREERLRQKEGELRALPAKDPQVERALAAVERQMAKISVAEDGRLRIRGALMGTYVASVLCKSVLEAGFLYGQWRLYGWTMEPVFVCQRAPCPYLVDCFVSRPTEKTIFIIFMLVVGLISLVLNLLELVHLLCRCLSRGMRARQGQDAPPTQGTSSDPYTDQVFFYLPVGQGPSSPPCPTYNGLSSSEQNWANLTTEERLASSRPPLFLDPPPQNGQKPPSRPSSSASKKQYV [GJA4]”: the percent infected was 98.9% (BHK/HA-Zeo (control)) and 98.7% (BHK/NZAP-Zeo (ZAP)).
“MMTKHKKCFIIVGVLITTNIITLIVKLTRDSQSLCPYDWIGFQNKCYYFSKEEGDWNSSKYNCSTQHADLTIIDNIEEMNFLRRYKCSSDHWIGLKMAKNRTGQWVDGATFTKSFGMRGSEGCAYLSDDGAATARCYTERKWICRKRIH [CLEC2B]” yielded a percent infected (BHK/HA-Zeo (control)) of 96.1% and a percent infected (BHK/NZAP-Zeo (ZAP)) of 94.9%.
Take “MPVERMRMRPWLEEQINSNTIPGLKWLNKEKKIFQIPWMHAARHGWDVEKDAPLFRNWAIHTGKHQPGVDKPDPKTWKANFRCAMNSLPDIEEVKDKSIKKGNNAFRVYRMLPLSERPSKKGKKPKTEKEDKVKHIKQEPVESSLGLSNGVSDLSPEYAVLTSTIKNEVDSTVNIIVVGQSHLDSNIENQEIVTNPPDICQVVEVTTESDEQPVSMSELYPLQISPVSSYAESETTDSVPSDEESAEGRPHWRKRNIEGKQYLSNMGTRGSYLLPGMASFVTSNKPDLQVTIKEESNPVPYNSSWPPFQDLPLSSSMTPASSSSRPDRETRASVIKKTSDITQARVKSC [IRF2]”: the percent infected is, setting by setting: (BHK/HA-Zeo (control)) 94.9%; (BHK/NZAP-Zeo (ZAP)) 12.1%.
The matching figures for “MEASALTSSAVTSVAKVVRVASGSAVVLPLARIATVVIGGVVAMAAVPMVLSAMGFTAAGIASSSIAAKMMSAAAIANGGGVASGSLVATLQSLGATGLSGLTKFILGSIGSAIAAVIARFY [IFI27]”: 97.6% and 94.7%.
The matching figures for GALNT2: 99% and 98.9%.
The matching figures for “MNMANFLRGFEEKGIKNDRPEDQLSKEKKKILFSFCEVCNIQLNSAAQAQVHSNGKSHRKRVKQLSDGQPPPPAQASPSSNSSTGSTCHTTTLPALVRTPTLMMQPSLDIKPFMSFPVDSSSAVGLFPNFNTMDPVQKAVINHTFGVSIPPKKKQVISCNVCQLRFNSDSQAEAHYKGSKHAKKVKALDATKNKPKMVPSKDSAKANPSCSITPITGNNSDKSEDKGKLKASSSSQPSSSESGSFLLKSGTTPLPPGAATSPSKSTNGAPGTVVESEEEKAKKLLYCSLCKVAVNSLSQLEAHNTGSKHKTMVEARNGAGPIKSYPRPGSRLKMQNGSKGSGLQNKTFHCEICDVHVNSEIQLKQHISSRRHKDRVAGKPLKPKYSPYNKLQRSPSILAAKLAFQKDMMKPLAPAFLSSPLAAAAAVSSALSLPPRPSASLFQAPAIPPALLRPGHGPIRATPASILFAPY [ZNF385B]”: 98.2% and 94.2%.
For the substance “MKVLLRLICFIALLISSLEADKCKEREEKIILVSSANEIDVRPCPLNPNEHKGTITWYKDDSKTPVSTEQASRIHQHKEKLWFVPAKVEDSGHYYCVVRNSSYCLRIKISAKFVENEPNLCYNAQAIFKQKLPVAGDGGLVCPYMEFFKNENNELPKLQWYKDCKPLLLDNIHFSGVKDRLIVMNVAEKHRGNYTCHASYTYLGKQYPITRVIEFITLEENKPTRPVIVSPANETMEVDLGSQIQLICNVTGQLSDIAYWKWNGSVIDEDDPVLGEDYYSVENPANKRRSTLITVLNISEIESRFYKHPFTCFAKNTHGIDAAYIQLIYPVTNFQKHMIGICVTLTVIIVCSVFIYKIFKIDIVLWYRDSCYDFLPIKASDGKTYDAYILYPKTVGEGSTSDCDIFVFKVLPEVLEKQCGYKLFIYGRDDYVGEDIVEVINENVKKSRRLIIILVRETSGFSWLGGSSEEQIAMYNALVQDGIKVVLLELEKIQDYEKMPESIKFIKQKHGAIRWSGDFTQGPQSAKTRFWKNVRYHMPVQRRSPSSKHQLLSPATKEKLQREAHVPLG [IL1R]”, the percent infected runs as follows: (BHK/HA-Zeo (control)) 98.4%; (BHK/NZAP-Zeo (ZAP)) 97.3%.
The matching figures for “MIASHLLAYFFTELNHDQVQKVDQYLYHMRLSDETLLEISKRFRKEMEKGLGATTHPTAAVKMLPTFVRSTPDGTEHGEFLALDLGGTNFRVLWVKVTDNGLQKVEMENQIYAIPEDIMRGSGTQLFDHIAECLANFMDKLQIKDKKLPLGFTFSFPCHQTKLDESFLVSWTKGFKSSGVEGRDVVALIRKAIQRRGDFDIDIVAVVNDTVGTMMTCGYDDHNCEIGLIVGTGSNACYMEEMRHIDMVEGDEGRMCINMEWGAFGDDGSLNDIRTEFDQEIDMGSLNPGKQLFEKMISGMYMGELVRLILVKMAKEELLFGGKLSPELLNTGRFETKDISDIEGEKDGIRKAREVLMRLGLDPTQEDCVATHRICQIVSTRSASLCAATLAAVLQRIKENKGEERLRSTIGVDGSVYKKHPHFAKRLHKTVRRLVPGCDVRFLRSEDGSGKGAAMVTAVAYRLADQHRARQKTLEHLQLSHDQLLEVKRRMKVEMERGLSKETHASAPVKMLPTYVCATPDGTEKGDFLALDLGGTNFRVLLVRVRNGKWGGVEMHNKIYAIPQEVMHGTGDELFDHIVQCIADFLEYMGMKGVSLPLGFTFSFPCQQNSLDESILLKWTKGFKASGCEGEDVVTLLKEAIHRREEFDLDVVAVVNDTVGTMMTCGFEDPHCEVGLIVGTGSNACYMEEMRNVELVEGEEGRMCVNMEWGAFGDNGCLDDFRTEFDVAVDELSLNPGKQRFEKMISGMYLGEIVRNILIDFTKRGLLFRGRISERLKTRGIFETKFLSQIESDCLALLQVRAILQHLGLESTCDDSIIVKEVCTVVARRAAQLCGAGMAAVVDRIRENRGLDALKVTVGVDGTLYKLHPHFAKVMHETVKDLAPKCDVSFLQSEDGSGKGAALITAVACRIREAGQR [HK2]”: 92.5% and 94.5%.
The matching figures for “MALAPERAAPRVLFGEWLLGEISSGCYEGLQWLDEARTCFRVPWKHFARKDLSEADARIFKAWAVARGRWPPSSRGGGPPPEAETAERAGWKTNFRCALRSTRRFVMLRDNSGDPADPHKVYALSRELCWREGPGTDQTEAEAPAAVPPPQGGPPGPFLAHTHAGLQAPGPLPAPAGDKGDLLLQAVQQSCLADHLLTASWGADPVPTKAPGEGQEGLPLTGACAGGPGLPAGELYGWAVETTPSPGPQPAALTTGEAAAPESPHQAEPYLSPSPSACTAVQEPSPGALDVTIMYKGRTVLQKVVGHPSCTFLYGPPDPAVRATDPQQVAFPSPAELPDQKQLRYTEELLRHVAPGLHLELRGPQLWARRMGKCKVYWEVGGPPGSASPSTPACLLPRNCDTPIFDFRVFFQELVEFRARQRRGSPRYTIYLGFGQDLSAGRPKEKSLVLVKLEPWLCRVHLEGTQREGVSSLDSSSLSLCLSSANSLYDDIECFLMELEQPA [IRF7]”: 93.9% and 49.7%.
The matching figures for “MGSEKDSESPRSTSLHAAAPDPKCRSGGRRRRLTLHSVFSASARGRRARAKPQAEPPPPAAQPPPAPAPAAAQGPPPEALPAEPAAEAEAEAAAAAAEPGFDDEEAAEGGGPGAEEVECPLCLVRLPPERAPRLLSCPHRSCRDCLRHYLRLEISESRVPISCPECSERLNPHDIRLLLADPPLMHKYEEFMLRRYLASDPDCRWCPAPDCGYAVIAYGCASCPKLTCEREGCQTEFCYHCKQIWHPNQTCDMARQQRAQTLRVRTKHTSGLSYGQESGPADDIKPCPRCSAYIIKMNDGSCNHMTCAVCGCEFCWLCMKEISDLHYLSPSGCTFWGKKPWSRKKKILWQLGTLIGAPVGISLIAGIAIPAMVIGIPVYVGRKIHSRYEGRKTSKHKRNLAITGGVTLSVIASPVIAAVSVGIGVPIMLAYVYGVVPISLCRGGGCGVSTANGKGVKIEFDEDDGPITVADAWRALKNPSIGESSIEGLTSVLSTSGSPTDGLSVMQGPYSETASFAALSGGTLSGGILSSGKGKYSRLEVQADVQKEIFPKDTASLGAISDNASTRAMAGSIISSYNPQDRECNNMEIQVDIEAKPSHYQLVSGSSTEDSLHVHAQMAENEEEGSGGGGSEEDPPCRHQSCEQKDCLASKPWDISLAQPESIRSDLESSDAQSDDVPDITSDECGSPRSHTAACPSTPRAQGAPSPSAHMNLSALAEGQTVLKPEGGEARV [RNF19B]”: 96.8% and 97.4%.
